{"sequences": {"note": "Amino acid sequences for entries named in this document (tags omitted). A change or cut given only in a name is not applied to a line headed by its entry.", "UniProt Q9NYY8": "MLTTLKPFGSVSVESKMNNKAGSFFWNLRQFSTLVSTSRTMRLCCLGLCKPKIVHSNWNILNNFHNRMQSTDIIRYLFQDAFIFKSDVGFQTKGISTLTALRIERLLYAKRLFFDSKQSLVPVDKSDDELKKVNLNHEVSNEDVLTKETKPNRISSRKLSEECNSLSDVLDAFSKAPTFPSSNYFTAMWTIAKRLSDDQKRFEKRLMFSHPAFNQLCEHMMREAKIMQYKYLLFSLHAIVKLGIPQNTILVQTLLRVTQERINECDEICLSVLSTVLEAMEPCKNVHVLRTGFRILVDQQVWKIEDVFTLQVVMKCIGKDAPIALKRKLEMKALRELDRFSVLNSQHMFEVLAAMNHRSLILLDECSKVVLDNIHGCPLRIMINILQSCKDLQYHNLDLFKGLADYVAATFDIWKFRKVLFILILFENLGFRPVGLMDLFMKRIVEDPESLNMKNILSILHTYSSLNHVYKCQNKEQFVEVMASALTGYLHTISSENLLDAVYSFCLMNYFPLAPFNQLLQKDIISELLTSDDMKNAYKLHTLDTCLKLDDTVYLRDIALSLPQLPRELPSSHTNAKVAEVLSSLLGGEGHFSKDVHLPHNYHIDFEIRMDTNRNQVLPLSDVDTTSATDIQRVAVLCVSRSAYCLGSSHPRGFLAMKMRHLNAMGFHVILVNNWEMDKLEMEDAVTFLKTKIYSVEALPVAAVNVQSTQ", "UniProt Q92913": "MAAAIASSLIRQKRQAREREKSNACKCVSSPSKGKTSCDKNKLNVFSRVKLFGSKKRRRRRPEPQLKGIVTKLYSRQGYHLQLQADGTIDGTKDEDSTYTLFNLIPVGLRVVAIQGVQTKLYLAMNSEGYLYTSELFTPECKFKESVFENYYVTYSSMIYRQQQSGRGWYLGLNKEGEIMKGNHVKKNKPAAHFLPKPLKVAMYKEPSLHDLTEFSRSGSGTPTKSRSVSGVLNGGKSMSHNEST", "UniProt Q8N3X1": "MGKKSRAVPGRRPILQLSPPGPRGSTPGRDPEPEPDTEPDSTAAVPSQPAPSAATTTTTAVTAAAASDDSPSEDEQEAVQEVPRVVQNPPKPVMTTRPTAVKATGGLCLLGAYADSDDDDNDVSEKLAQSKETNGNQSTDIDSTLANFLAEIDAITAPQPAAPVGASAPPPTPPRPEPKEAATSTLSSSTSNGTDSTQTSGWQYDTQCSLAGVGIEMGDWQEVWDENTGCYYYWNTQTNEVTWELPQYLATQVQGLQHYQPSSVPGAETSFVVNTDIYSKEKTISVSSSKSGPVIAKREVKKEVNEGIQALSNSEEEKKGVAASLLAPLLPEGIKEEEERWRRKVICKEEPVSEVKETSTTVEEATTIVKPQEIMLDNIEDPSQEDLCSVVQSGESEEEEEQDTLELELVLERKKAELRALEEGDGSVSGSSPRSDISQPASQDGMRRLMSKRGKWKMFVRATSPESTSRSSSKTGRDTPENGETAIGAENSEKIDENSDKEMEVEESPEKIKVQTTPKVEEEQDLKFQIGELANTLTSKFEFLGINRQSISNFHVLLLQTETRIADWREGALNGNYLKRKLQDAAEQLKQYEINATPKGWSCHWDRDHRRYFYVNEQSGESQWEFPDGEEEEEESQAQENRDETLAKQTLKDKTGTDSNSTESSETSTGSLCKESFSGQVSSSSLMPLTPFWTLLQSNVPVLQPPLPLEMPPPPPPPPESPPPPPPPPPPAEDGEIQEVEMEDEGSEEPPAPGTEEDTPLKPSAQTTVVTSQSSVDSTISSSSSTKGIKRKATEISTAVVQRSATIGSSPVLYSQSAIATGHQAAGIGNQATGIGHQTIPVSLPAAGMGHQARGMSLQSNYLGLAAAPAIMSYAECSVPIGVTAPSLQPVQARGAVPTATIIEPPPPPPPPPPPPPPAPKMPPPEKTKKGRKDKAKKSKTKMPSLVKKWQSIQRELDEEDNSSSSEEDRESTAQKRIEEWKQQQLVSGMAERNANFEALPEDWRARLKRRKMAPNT", "UniProt Q8WVX9": "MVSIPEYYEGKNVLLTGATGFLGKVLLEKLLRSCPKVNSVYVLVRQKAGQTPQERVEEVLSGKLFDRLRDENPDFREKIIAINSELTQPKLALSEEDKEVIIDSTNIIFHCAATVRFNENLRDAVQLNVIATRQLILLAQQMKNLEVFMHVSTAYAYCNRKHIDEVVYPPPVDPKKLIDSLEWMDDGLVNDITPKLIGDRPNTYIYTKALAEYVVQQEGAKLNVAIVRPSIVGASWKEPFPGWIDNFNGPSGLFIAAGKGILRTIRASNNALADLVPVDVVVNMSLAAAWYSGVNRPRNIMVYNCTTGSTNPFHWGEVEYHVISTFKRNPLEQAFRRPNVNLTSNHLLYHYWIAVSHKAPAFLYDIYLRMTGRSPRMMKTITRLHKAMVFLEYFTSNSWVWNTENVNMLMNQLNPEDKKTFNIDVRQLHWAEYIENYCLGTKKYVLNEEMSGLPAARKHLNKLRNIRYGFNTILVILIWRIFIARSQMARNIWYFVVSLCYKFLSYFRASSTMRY", "UniProt P02751, whole entry, looked up": "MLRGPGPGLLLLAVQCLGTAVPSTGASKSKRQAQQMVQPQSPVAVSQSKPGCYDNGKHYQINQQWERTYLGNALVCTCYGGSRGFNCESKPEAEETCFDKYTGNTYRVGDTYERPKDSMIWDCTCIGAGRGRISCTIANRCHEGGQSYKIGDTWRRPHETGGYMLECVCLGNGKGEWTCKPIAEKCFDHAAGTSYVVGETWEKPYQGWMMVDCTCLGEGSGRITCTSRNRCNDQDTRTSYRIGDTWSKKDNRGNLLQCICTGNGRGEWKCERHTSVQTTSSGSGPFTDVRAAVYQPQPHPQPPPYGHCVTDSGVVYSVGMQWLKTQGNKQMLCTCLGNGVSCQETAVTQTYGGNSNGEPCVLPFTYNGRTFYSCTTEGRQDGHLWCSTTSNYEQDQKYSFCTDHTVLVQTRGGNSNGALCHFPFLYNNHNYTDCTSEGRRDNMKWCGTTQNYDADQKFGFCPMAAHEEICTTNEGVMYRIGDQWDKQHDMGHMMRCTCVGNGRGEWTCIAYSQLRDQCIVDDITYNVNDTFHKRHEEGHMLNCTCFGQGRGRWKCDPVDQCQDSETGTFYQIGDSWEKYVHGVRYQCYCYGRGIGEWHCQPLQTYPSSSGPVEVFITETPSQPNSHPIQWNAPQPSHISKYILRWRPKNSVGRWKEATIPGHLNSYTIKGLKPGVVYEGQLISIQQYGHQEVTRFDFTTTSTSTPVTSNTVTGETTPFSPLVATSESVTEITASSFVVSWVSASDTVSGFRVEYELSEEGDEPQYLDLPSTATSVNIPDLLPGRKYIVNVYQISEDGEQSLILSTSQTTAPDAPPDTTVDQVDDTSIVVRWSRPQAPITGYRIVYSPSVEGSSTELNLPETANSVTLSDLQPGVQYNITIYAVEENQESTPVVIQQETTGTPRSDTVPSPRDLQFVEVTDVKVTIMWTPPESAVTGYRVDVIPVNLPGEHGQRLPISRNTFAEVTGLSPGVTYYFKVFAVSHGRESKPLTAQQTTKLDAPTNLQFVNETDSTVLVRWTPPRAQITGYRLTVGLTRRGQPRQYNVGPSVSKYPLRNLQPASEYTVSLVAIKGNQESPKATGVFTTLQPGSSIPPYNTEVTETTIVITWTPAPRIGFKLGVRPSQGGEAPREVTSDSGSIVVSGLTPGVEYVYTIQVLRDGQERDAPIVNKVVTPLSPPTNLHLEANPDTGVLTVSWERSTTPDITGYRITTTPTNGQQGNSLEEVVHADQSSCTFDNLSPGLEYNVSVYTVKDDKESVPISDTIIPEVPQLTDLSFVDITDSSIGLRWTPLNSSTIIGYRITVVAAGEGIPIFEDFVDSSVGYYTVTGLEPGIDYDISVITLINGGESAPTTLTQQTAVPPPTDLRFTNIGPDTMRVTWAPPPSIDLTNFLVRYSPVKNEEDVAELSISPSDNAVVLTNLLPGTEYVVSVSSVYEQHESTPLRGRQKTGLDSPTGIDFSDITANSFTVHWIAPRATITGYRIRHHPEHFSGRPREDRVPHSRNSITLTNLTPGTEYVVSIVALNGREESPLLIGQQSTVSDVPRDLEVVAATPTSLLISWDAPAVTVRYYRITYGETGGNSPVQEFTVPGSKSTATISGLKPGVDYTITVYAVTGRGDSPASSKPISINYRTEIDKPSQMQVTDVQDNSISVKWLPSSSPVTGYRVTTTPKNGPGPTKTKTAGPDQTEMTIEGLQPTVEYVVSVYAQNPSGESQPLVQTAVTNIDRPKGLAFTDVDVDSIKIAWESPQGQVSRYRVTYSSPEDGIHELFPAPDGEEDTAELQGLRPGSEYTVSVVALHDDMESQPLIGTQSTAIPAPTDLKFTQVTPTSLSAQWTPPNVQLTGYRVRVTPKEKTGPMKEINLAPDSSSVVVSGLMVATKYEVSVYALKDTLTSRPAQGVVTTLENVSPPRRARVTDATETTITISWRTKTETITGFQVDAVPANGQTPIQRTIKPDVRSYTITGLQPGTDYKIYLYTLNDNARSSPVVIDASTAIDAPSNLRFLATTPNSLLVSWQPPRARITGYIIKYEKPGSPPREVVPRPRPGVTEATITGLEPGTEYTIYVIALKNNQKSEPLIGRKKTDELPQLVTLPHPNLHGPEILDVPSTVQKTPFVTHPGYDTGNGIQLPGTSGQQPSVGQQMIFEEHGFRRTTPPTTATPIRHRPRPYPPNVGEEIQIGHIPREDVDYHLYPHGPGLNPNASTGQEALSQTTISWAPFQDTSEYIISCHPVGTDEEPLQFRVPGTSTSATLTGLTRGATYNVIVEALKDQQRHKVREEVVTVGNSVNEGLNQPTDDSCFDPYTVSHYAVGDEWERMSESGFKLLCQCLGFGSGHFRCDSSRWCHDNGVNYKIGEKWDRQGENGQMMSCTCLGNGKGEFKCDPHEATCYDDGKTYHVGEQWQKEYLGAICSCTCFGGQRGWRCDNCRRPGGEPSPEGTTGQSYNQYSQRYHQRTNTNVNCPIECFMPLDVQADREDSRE", "UniProt Q13451": "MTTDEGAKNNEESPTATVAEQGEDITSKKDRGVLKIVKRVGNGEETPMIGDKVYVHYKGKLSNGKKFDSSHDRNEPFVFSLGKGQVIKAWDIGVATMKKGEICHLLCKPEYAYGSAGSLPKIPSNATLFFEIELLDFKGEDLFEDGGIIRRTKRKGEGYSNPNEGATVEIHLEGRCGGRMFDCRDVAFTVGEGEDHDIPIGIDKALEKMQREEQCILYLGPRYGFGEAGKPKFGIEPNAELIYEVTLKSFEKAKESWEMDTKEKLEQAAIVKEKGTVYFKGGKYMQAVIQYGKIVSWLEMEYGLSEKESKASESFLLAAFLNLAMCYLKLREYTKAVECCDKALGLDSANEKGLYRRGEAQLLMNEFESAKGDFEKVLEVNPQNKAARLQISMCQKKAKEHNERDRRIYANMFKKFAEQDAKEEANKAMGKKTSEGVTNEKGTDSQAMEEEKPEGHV", "UniProt Q96ND0": "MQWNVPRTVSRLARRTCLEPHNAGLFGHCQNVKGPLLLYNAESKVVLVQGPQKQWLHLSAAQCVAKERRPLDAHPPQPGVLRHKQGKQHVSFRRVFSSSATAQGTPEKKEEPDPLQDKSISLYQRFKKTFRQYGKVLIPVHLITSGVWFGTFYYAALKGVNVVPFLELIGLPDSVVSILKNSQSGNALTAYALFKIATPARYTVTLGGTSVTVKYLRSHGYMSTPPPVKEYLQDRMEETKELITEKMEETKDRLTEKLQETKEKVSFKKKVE", "UniProt Q5XUX1": "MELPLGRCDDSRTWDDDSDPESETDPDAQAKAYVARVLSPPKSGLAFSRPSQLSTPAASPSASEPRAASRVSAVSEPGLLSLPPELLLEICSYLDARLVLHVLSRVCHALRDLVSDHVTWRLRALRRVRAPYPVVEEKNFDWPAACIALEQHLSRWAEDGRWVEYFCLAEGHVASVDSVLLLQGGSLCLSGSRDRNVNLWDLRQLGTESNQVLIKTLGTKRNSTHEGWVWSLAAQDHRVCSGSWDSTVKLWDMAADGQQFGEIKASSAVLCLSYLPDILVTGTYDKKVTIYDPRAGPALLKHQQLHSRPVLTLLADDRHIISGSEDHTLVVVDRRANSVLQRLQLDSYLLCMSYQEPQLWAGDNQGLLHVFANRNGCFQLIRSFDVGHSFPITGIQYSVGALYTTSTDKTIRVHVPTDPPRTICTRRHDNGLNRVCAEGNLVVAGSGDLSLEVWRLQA", "UniProt Q9UIM3": "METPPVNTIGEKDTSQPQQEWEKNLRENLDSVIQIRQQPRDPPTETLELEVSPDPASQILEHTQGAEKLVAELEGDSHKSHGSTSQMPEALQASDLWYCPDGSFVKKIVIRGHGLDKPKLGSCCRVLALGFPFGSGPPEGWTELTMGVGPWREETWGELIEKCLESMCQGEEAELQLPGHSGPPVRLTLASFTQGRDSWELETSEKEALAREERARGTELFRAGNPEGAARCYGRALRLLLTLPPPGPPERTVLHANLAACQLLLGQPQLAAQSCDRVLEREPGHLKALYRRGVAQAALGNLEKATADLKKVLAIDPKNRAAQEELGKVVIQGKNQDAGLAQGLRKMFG"}, "source": "the supplement of paper PMC10849652", "note": "The list shows a part of the results.", "data": [{"compound": "CN1CCN(CCOc2cc(OC3CCOCC3)c3c(Nc4c(Cl)ccc5c4OCO5)ncnc3c2)CC1 [saracatinib]", "test": "log2 fold change, soluble protein after heating vs DMSO (PISA); higher = thermal stabilisation; K562 cells, 10 uM, 30 min; active = over 0.2 and 3.5 SD of the protein, either way, in both replicates (recomputed)", "outline": "(§1)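 K562 cells at 2×10^6 cells/mL were given 10 μM compound for 30 min. Aliquots then went through 3 min of heating across 48°C-58°C, were pooled, and were extracted in PBS with 0.5% NP-40 at 4°C, and the supernatant after 21,000xg for 90 min was quantified by TMTpro 16plex LC-MS/MS with channel sums equalised. Thermal stability relative to control samples, from duplicates, is given as log2 fold change.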", "values": [{"target": "FASTKD2 (UniProt Q9NYY8)", "log2 fold change": "inactive: -0.008"}, {"target": "FGF13 isoform 3 (UniProt Q92913)", "log2 fold change": "inactive: 0.029"}, {"target": "FERMT3 (UniProt Q86UX7)", "log2 fold change": "inactive: 0.019"}, {"target": "FBXO6 (UniProt Q9NRD1)", "log2 fold change": "inactive: 0.042"}, {"target": "FBL (UniProt P22087)", "log2 fold change": "inactive: 0.11"}, {"target": "FNBP4 isoform 2 (UniProt Q8N3X1)", "log2 fold change": "inactive: 0.028"}, {"target": "FAR1 (UniProt Q8WVX9)", "log2 fold change": "inactive: -0.022"}, {"target": "FARS2 (UniProt O95363)", "log2 fold change": "inactive: -0.026"}, {"target": "FN1 isoform 1 (UniProt P02751)", "log2 fold change": "inactive: 0.028"}, {"target": "FKBP4 (UniProt Q02790)", "log2 fold change": "inactive: -0.048"}, {"target": "FKBP5 (UniProt Q13451)", "log2 fold change": "inactive: -0.098"}, {"target": "FAT3 isoform 1 (UniProt Q8TDW7)", "log2 fold change": "inactive: 0.297"}, {"target": "FAM210A (UniProt Q96ND0)", "log2 fold change": "inactive: 0.079"}, {"target": "FIS1 (UniProt Q9Y3D6)", "log2 fold change": "active: 0.333"}, {"target": "FBXW9 (UniProt Q5XUX1)", "log2 fold change": "inactive: -0.023"}]}, {"compound": "CN1CCN(c2nc(C3=C(c4c[nH]c5ccccc45)C(=O)NC3=O)c3ccccc3n2)CC1 [sotrastaurin]", "test": "log2 fold change, soluble protein after heating vs DMSO (PISA); higher = thermal stabilisation; K562 cells, 10 uM, 30 min; active = over 0.2 and 3.5 SD of the protein, either way, in both replicates (recomputed)", "outline": "as §1", "values": [{"target": "FN3KRP (UniProt Q9HA64)", "log2 fold change": "inactive: 0.026"}, {"target": "FCGR2A (UniProt P12318)", "log2 fold change": "inactive: 0.101"}, {"target": "FKRP (UniProt Q9H9S5)", "log2 fold change": "inactive: 0.071"}, {"target": "FDXR isoform 7 (UniProt P22570)", "log2 fold change": "inactive: 0.116"}, {"target": "FIP1L1 (UniProt Q6UN15)", "log2 fold change": "inactive: 0.006"}, {"target": "FAM234A (UniProt Q9H0X4)", "log2 fold change": "inactive: 0.039"}, {"target": "FLNA (UniProt P21333)", "log2 fold change": "inactive: -0.161"}, {"target": "FAM98A (UniProt Q8NCA5)", "log2 fold change": "inactive: 0.004"}, {"target": "FLT4 (UniProt P35916)", "log2 fold change": "inactive: 0.01"}, {"target": "FBXL12 (UniProt Q9NXK8)", "log2 fold change": "inactive: -0.022"}, {"target": "FKBPL (UniProt Q9UIM3)", "log2 fold change": "inactive: -0.007"}, {"target": "FDX1 (UniProt P10109)", "log2 fold change": "inactive: -0.074"}, {"target": "FAM219A (UniProt Q8IW50)", "log2 fold change": "inactive: 0.051"}, {"target": "FAM91A1 (UniProt Q658Y4)", "log2 fold change": "inactive: -0.049"}, {"target": "FBXO30 (UniProt Q8TB52)", "log2 fold change": "inactive: -0.029"}, {"target": "FBXO7 (UniProt Q9Y3I1)", "log2 fold change": "inactive: 0.052"}, {"target": "FAM76B (UniProt Q5HYJ3)", "log2 fold change": "inactive: -0.135"}, {"target": "FAM3A (UniProt P98173)", "log2 fold change": "inactive: 0.001"}, {"target": "FANCB (UniProt Q8NB91)", "log2 fold change": "inactive: 0.015"}, {"target": "FECH isoform 2 (UniProt P22830)", "log2 fold change": "inactive: 0.008"}, {"target": "FHL3 (UniProt Q13643)", "log2 fold change": "inactive: 0.071"}, {"target": "FKBP9 (UniProt O95302)", "log2 fold change": "inactive: 0.001"}, {"target": "FAM49B (UniProt Q9NUQ9)", "log2 fold change": "inactive: 0.004"}, {"target": "FASTKD2 (UniProt Q9NYY8)", "log2 fold change": "inactive: -0.002"}, {"target": "FGF13 isoform 3 (UniProt Q92913)", "log2 fold change": "inactive: 0.043"}, {"target": "FERMT3 (UniProt Q86UX7)", "log2 fold change": "inactive: -0.016"}, {"target": "FBXO6 (UniProt Q9NRD1)", "log2 fold change": "inactive: -0.085"}, {"target": "FBL (UniProt P22087)", "log2 fold change": "inactive: -0.016"}, {"target": "FNBP4 isoform 2 (UniProt Q8N3X1)", "log2 fold change": "inactive: 0.036"}, {"target": "FAR1 (UniProt Q8WVX9)", "log2 fold change": "inactive: 0.045"}, {"target": "FBH1 isoform 2 (UniProt Q8NFZ0)", "log2 fold change": "inactive: 0.085"}, {"target": "FARS2 (UniProt O95363)", "log2 fold change": "inactive: -0.003"}, {"target": "FN1 isoform 1 (UniProt P02751)", "log2 fold change": "inactive: 0.107"}, {"target": "FKBP4 (UniProt Q02790)", "log2 fold change": "inactive: -0.022"}, {"target": "FKBP5 (UniProt Q13451)", "log2 fold change": "inactive: -0.182"}, {"target": "FAT3 isoform 1 (UniProt Q8TDW7)", "log2 fold change": "inactive: 0.158"}, {"target": "FAM210A (UniProt Q96ND0)", "log2 fold change": "inactive: 0.113"}, {"target": "FIS1 (UniProt Q9Y3D6)", "log2 fold change": "inactive: 0.016"}, {"target": "FBXW9 (UniProt Q5XUX1)", "log2 fold change": "inactive: 0.028"}]}, {"compound": "CN1CC[C@H](c2c(O)cc(O)c3c(=O)cc(-c4ccccc4Cl)oc23)[C@H](O)C1 [alvocidib]", "test": "log2 fold change, soluble protein after heating vs DMSO (PISA); higher = thermal stabilisation; K562 cells, 10 uM, 30 min; active = over 0.2 and 3.5 SD of the protein, either way, in both replicates (recomputed)", "outline": "as §1", "values": [{"target": "FN3KRP (UniProt Q9HA64)", "log2 fold change": "inactive: -0.006"}, {"target": "FIP1L1 (UniProt Q6UN15)", "log2 fold change": "inactive: 0.053"}, {"target": "FAM234A (UniProt Q9H0X4)", "log2 fold change": "inactive: -0.094"}, {"target": "FAM98A (UniProt Q8NCA5)", "log2 fold change": "inactive: 0.166"}, {"target": "FLT4 (UniProt P35916)", "log2 fold change": "inactive: -0.046"}, {"target": "FBXL12 (UniProt Q9NXK8)", "log2 fold change": "inactive: -0.257"}, {"target": "FKBPL (UniProt Q9UIM3)", "log2 fold change": "inactive: -0.03"}, {"target": "FDX1 (UniProt P10109)", "log2 fold change": "inactive: -0.016"}, {"target": "FAM219A (UniProt Q8IW50)", "log2 fold change": "inactive: -0.098"}, {"target": "FBXO30 (UniProt Q8TB52)", "log2 fold change": "inactive: -0.099"}, {"target": "FAM76B (UniProt Q5HYJ3)", "log2 fold change": "inactive: 0.087"}, {"target": "FANCB (UniProt Q8NB91)", "log2 fold change": "inactive: 0.022"}, {"target": "FHL3 (UniProt Q13643)", "log2 fold change": "inactive: 0.019"}, {"target": "FKBP9 (UniProt O95302)", "log2 fold change": "inactive: 0.044"}, {"target": "FAM49B (UniProt Q9NUQ9)", "log2 fold change": "inactive: -0.07"}, {"target": "FASTKD2 (UniProt Q9NYY8)", "log2 fold change": "inactive: -0.11"}, {"target": "FGF13 isoform 3 (UniProt Q92913)", "log2 fold change": "inactive: -0.029"}, {"target": "FNBP4 isoform 2 (UniProt Q8N3X1)", "log2 fold change": "inactive: 0.013"}, {"target": "FAR1 (UniProt Q8WVX9)", "log2 fold change": "inactive: -0.041"}, {"target": "FN1 isoform 1 (UniProt P02751)", "log2 fold change": "inactive: 0.07"}, {"target": "FKBP5 (UniProt Q13451)", "log2 fold change": "inactive: -0.093"}, {"target": "FAM210A (UniProt Q96ND0)", "log2 fold change": "inactive: 0.004"}, {"target": "FBXW9 (UniProt Q5XUX1)", "log2 fold change": "inactive: -0.032"}]}]}
